# The supplement of paper PMC8728848
# The list shows a part of the results.
# B1: Mincle (Bos taurus) (protein)
# chain: MNSSTSPASQTERRCFSFQLFSWAIAGTSILLLSACFITRCVVTYSIFQLCDEKKFQPPGDSMELSCYNDGSGSVKNCCPLKWFHFQSSCYLFSPDTMSWRASLKNCSSMGAHLVVINTQEEQEFLYYTKPRKKEFYIGLTDQVTEGQWQWVDGTPFTKSLSFWDAGEPNNLVIVEDCATIRDSSNPRQNWNDVPCFFNMFRVCEMPERKI
# Key:
# Test in all cases: glycan array binding signal (z-score within array); higher = stronger binding
# Conditions in all cases: glycan notation: IUPAC condensed, linker removed
# Neu5Ac(a2-3)Gal(b1-4)Glc = molecular target: Neu5Ac(a2-3)Gal(b1-4)Glc
# How it was run: (§1)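 Negative Z-scores can be read as non-binding. The Z-score is calculated within each array and then averaged across arrays of one protein sequence at different concentrations or buffers and across linkers. Arrays, 3228 in all, were curated from the Consortium for Functional Glycomics database and kept only where the protein sequence was available.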
# [1] = molecular target: Neu5Ac(a2-3)Gal(b1-4)GlcNAc
# How it was run: as §1
# [2] = molecular target: Neu5Ac(a2-3)Gal(b1-4)GlcNAc(b1-2)Man
# How it was run: as §1
# [3] = molecular target: Neu5Ac(a2-3)Gal(b1-4)GlcNAc(b1-2)Man(a1-3)[GlcNAc(b1-4)][Neu5Ac(a2-3)Gal(b1-4)GlcNAc(b1-2)Man(a1-6)]Man(b1-4)GlcNAc(b1-4)GlcNAc
# How it was run: as §1
# [4] = molecular target: Neu5Ac(a2-3)Gal(b1-4)GlcNAc(b1-2)Man(a1-3)[Neu5Ac(a2-3)Gal(b1-4)GlcNAc(b1-2)Man(a1-6)]Man(b1-4)GlcNAc(b1-4)GlcNAc
# How it was run: as §1
# [5] = molecular target: Neu5Ac(a2-3)Gal(b1-4)GlcNAc(b1-2)Man(a1-3)[Neu5Ac(a2-3)Gal(b1-4)GlcNAc(b1-2)Man(a1-6)]Man(b1-4)GlcNAc(b1-4)[Fuc(a1-6)]GlcNAc
# How it was run: as §1
# [6] = molecular target: Neu5Ac(a2-3)Gal(b1-4)GlcNAc(b1-2)Man(a1-3)[Neu5Ac(a2-6)Gal(b1-4)GlcNAc(b1-2)Man(a1-6)]Man(b1-4)GlcNAc(b1-4)GlcNAc
# How it was run: as §1
# [7] = molecular target: Neu5Ac(a2-3)Gal(b1-4)GlcNAc(b1-2)[Neu5Ac(a2-3)Gal(b1-4)GlcNAc(b1-4)]Man(a1-3)[GlcNAc(b1-4)][Neu5Ac(a2-3)Gal(b1-4)GlcNAc(b1-2)[Neu5Ac(a2-3)Gal(b1-4)GlcNAc(b1-6)]Man(a1-6)]Man(b1-4)GlcNAc(b1-4)GlcNAc
# How it was run: as §1
# [8] = molecular target: Neu5Ac(a2-3)Gal(b1-4)GlcNAc(b1-2)[Neu5Ac(a2-3)Gal(b1-4)GlcNAc(b1-4)]Man(a1-3)[GlcNAc(b1-4)][Neu5Ac(a2-3)Gal(b1-4)GlcNAc(b1-4)Man(a1-6)]Man(b1-4)GlcNAc(b1-4)GlcNAc
# How it was run: as §1
# [9] = molecular target: Neu5Ac(a2-3)Gal(b1-4)GlcNAc(b1-2)[Neu5Ac(a2-3)Gal(b1-4)GlcNAc(b1-6)]Man(a1-6)[Neu5Ac(a2-3)Gal(b1-4)GlcNAc(b1-2)Man(a1-3)][GlcNAc(b1-4)]Man(b1-4)GlcNAc(b1-4)GlcNAc
# How it was run: as §1
# [10] = molecular target: Neu5Ac(a2-3)Gal(b1-4)GlcNAc(b1-3)Gal
# How it was run: as §1
# [11] = molecular target: Neu5Ac(a2-3)Gal(b1-4)GlcNAc(b1-3)Gal(b1-3)GlcNAc
# How it was run: as §1
# [12] = molecular target: Neu5Ac(a2-3)Gal(b1-4)GlcNAc(b1-3)Gal(b1-4)GlcNAc
# How it was run: as §1
# [13] = molecular target: Neu5Ac(a2-3)Gal(b1-4)GlcNAc(b1-3)Gal(b1-4)GlcNAc(b1-2)Man(a1-3)[Neu5Ac(a2-3)Gal(b1-4)GlcNAc(b1-3)Gal(b1-4)GlcNAc(b1-2)Man(a1-6)]Man(b1-4)GlcNAc(b1-4)GlcNAc
# How it was run: as §1
# [14] = molecular target: Neu5Ac(a2-3)Gal(b1-4)GlcNAc(b1-3)Gal(b1-4)GlcNAc(b1-3)Gal(b1-4)GlcNAc
# How it was run: as §1
# [15] = molecular target: Neu5Ac(a2-3)Gal(b1-4)GlcNAc(b1-3)Gal(b1-4)GlcNAc(b1-3)Gal(b1-4)GlcNAc(b1-2)Man(a1-3)[Neu5Ac(a2-3)Gal(b1-4)GlcNAc(b1-3)Gal(b1-4)GlcNAc(b1-3)Gal(b1-4)GlcNAc(b1-2)Man(a1-6)]GalNAc
# How it was run: as §1
# [16] = molecular target: Neu5Ac(a2-3)Gal(b1-4)GlcNAc(b1-3)Gal(b1-4)GlcNAc(b1-3)GalNAc
# How it was run: as §1
# [17] = molecular target: Neu5Ac(a2-3)Gal(b1-4)GlcNAc(b1-3)Gal(b1-4)GlcNAc(b1-3)[Neu5Ac(a2-3)Gal(b1-4)GlcNAc(b1-3)Gal(b1-4)GlcNAc(b1-6)]GalNAc
# How it was run: as §1
# [18] = molecular target: Neu5Ac(a2-3)Gal(b1-4)GlcNAc(b1-3)Gal(b1-4)GlcNAc(b1-6)[Gal(b1-3)]GalNAc
# How it was run: as §1
# [19] = molecular target: Neu5Ac(a2-3)Gal(b1-4)GlcNAc(b1-3)Gal(b1-4)[Fuc(a1-3)]GlcNAc
# How it was run: as §1
# [20] = molecular target: Neu5Ac(a2-3)Gal(b1-4)GlcNAc(b1-3)GalNAc
# How it was run: as §1
# [21] = molecular target: Neu5Ac(a2-3)Gal(b1-4)GlcNAc(b1-3)[Neu5Ac(a2-3)Gal(b1-4)GlcNAc(b1-6)]GalNAc
# How it was run: as §1
# [22] = molecular target: Neu5Ac(a2-3)Gal(b1-4)GlcNAc(b1-6)GalNAc
# How it was run: as §1
# [23] = molecular target: Neu5Ac(a2-3)Gal(b1-4)GlcNAc(b1-6)[Gal(b1-3)]GalNAc
# How it was run: as §1
# [24] = molecular target: Neu5Ac(a2-3)Gal(b1-4)GlcNAc(b1-6)[Neu5Ac(a2-3)Gal(b1-3)]GalNAc
# How it was run: as §1
# [25] = molecular target: Neu5Ac(a2-3)Gal(b1-4)GlcNAc6S
# How it was run: as §1
# [26] = molecular target: Neu5Ac(a2-3)Gal(b1-4)[Fuc(a1-3)]GlcNAc
# How it was run: as §1
# [27] = molecular target: Neu5Ac(a2-3)Gal(b1-4)[Fuc(a1-3)]GlcNAc(b1-2)Man
# How it was run: as §1
# [28] = molecular target: Neu5Ac(a2-3)Gal(b1-4)[Fuc(a1-3)]GlcNAc(b1-3)Gal
# How it was run: as §1
# [29] = molecular target: Neu5Ac(a2-3)Gal(b1-4)[Fuc(a1-3)]GlcNAc(b1-3)Gal(b1-4)GlcNAc
# How it was run: as §1
# [30] = molecular target: Neu5Ac(a2-3)Gal(b1-4)[Fuc(a1-3)]GlcNAc(b1-3)Gal(b1-4)[Fuc(a1-3)]GlcNAc(b1-3)Gal(b1-4)[Fuc(a1-3)]GlcNAc
# How it was run: as §1
# [31] = molecular target: Neu5Ac(a2-3)Gal(b1-4)[Fuc(a1-3)]GlcNAc(b1-3)GalNAc
# How it was run: as §1
# [32] = molecular target: Neu5Ac(a2-3)Gal(b1-4)[Fuc(a1-3)]GlcNAc(b1-6)[Gal(b1-3)]GalNAc
# How it was run: as §1
# [33] = molecular target: Neu5Ac(a2-3)Gal(b1-4)[Fuc(a1-3)]GlcNAc(b1-6)[Neu5Ac(a2-3)Gal(b1-3)]GalNAc
# How it was run: as §1
# [34] = molecular target: Neu5Ac(a2-3)Gal(b1-4)[Fuc(a1-3)]GlcNAc6S
# How it was run: as §1
# [35] = molecular target: Neu5Ac(a2-3)Gal6S(b1-4)GlcNAc
# How it was run: as §1
# [36] = molecular target: Neu5Ac(a2-3)Gal6S(b1-4)[Fuc(a1-3)]GlcNAc
# How it was run: as §1
# Neu5Ac(a2-3)GalNAc = molecular target: Neu5Ac(a2-3)GalNAc
# How it was run: as §1
binder,measurement,setting,value
B1,glycan array binding signal (z-score),Neu5Ac(a2-3)Gal(b1-4)Glc,-0.134
same,glycan array binding signal (z-score),[1],-0.845
same,glycan array binding signal (z-score),[2],0.683
same,glycan array binding signal (z-score),[3],0.061
same,glycan array binding signal (z-score),[4],-1.06
same,glycan array binding signal (z-score),[5],0.44
same,glycan array binding signal (z-score),[6],0.085
same,glycan array binding signal (z-score),[7],-0.287
same,glycan array binding signal (z-score),[8],-0.527
same,glycan array binding signal (z-score),[9],-0.652
same,glycan array binding signal (z-score),[10],-0.264
same,glycan array binding signal (z-score),[11],0.02
same,glycan array binding signal (z-score),[12],-0.283
same,glycan array binding signal (z-score),[13],1.14
same,glycan array binding signal (z-score),[14],-1.07
same,glycan array binding signal (z-score),[15],4.3
same,glycan array binding signal (z-score),[16],-0.263
same,glycan array binding signal (z-score),[17],-0.078
same,glycan array binding signal (z-score),[18],-0.21
same,glycan array binding signal (z-score),[19],-0.67
same,glycan array binding signal (z-score),[20],-0.071
same,glycan array binding signal (z-score),[21],0.097
same,glycan array binding signal (z-score),[22],-1
same,glycan array binding signal (z-score),[23],-0.034
same,glycan array binding signal (z-score),[24],-0.537
same,glycan array binding signal (z-score),[25],-1.02
same,glycan array binding signal (z-score),[26],-0.612
same,glycan array binding signal (z-score),[27],-0.775
same,glycan array binding signal (z-score),[28],-0.328
same,glycan array binding signal (z-score),[29],0.264
same,glycan array binding signal (z-score),[30],-1.45
same,glycan array binding signal (z-score),[31],1.18
same,glycan array binding signal (z-score),[32],0.16
same,glycan array binding signal (z-score),[33],0.392
same,glycan array binding signal (z-score),[34],-0.654
same,glycan array binding signal (z-score),[35],-0.668
same,glycan array binding signal (z-score),[36],-1.05
same,glycan array binding signal (z-score),Neu5Ac(a2-3)GalNAc,-0.677

# 2 records picked at random from those above, as already listed:
binder,measurement,setting,value
B1,glycan array binding signal (z-score),[11],0.02
same,glycan array binding signal (z-score),[8],-0.527
